The exact form of at least one protein or probe is not confirmed. Negatives hold for the conditions tested.
Legend:
[1] = system: Trx-TaSAD (Triticum aestivum cv. Renan (B genome copy)); experiment: EMSA; settings: 20 fmol biotin-labelled dsDNA; 370 ng Trx-TaSAD, 500 ng Trx-WPBF, 625-2500 ng His-SPA; 100x/200x unlabelled competitor; recombinant protein; protein details: N-terminal thioredoxin and His6 (pET32-TEV); label: 3' biotin
Trx-WPBF = experiment: EMSA; settings: 20 fmol biotin-labelled dsDNA; 370 ng Trx-TaSAD, 500 ng Trx-WPBF, 625-2500 ng His-SPA; 100x/200x unlabelled competitor; recombinant protein; protein details: N-terminal thioredoxin and His6 (pET32-TEV); label: 3' biotin

## AATCTGTTTTGCAAGCACCAAT (double strand) [Pb1-like]
[1]
  binding result: no binding
Trx-WPBF
  binding result: no binding

## AGATAACAGGAACAGACCAAT (double strand) [dof3]
[1]
  binding result: no binding
Trx-WPBF
  binding result: no binding

## CACACTTCTGCAAACAATACACCAG (double strand) [Pb2]
[1]
  binding result: no binding
Trx-WPBF
  binding result: no binding

## CTCGGTTGTAGAATTTATACTA (double strand) [em2]
[1]
  binding result: no binding
Trx-WPBF
  binding result: no binding

## GCATATTTGCGGAAGCAATGGC (double strand) [Pb3-like]
[1]
  binding result: no binding
Trx-WPBF
  binding result: no binding

## GCCAGATGTTTCAGTTAG (double strand) [dof1]
[1]
  binding result: no binding
Trx-WPBF
  binding result: no binding

## TGTGACATCTAAACTTAATAAGGTGA (double strand) [em1]
[1]
  binding result: no binding
Trx-WPBF
  binding result: no binding

## TTGTCACGGAGATGTGTTT (double strand) [dof2]
[1]
  binding result: no binding
Trx-WPBF
  binding result: no binding

From article PMC10289392
